From publication PMC5527091

Target: Akt (mouse (endogenous in EOMA))
Assay: co-IP; EOMA cells treated with or without platelets for 30 minutes, lysed; immunoprecipitation with anti-Akt antibody (Cell Signaling Technology #4691) using the Pierce Crosslink IP Kit; normal rabbit IgG as negative control; integrin β3 detected by Western blot

B1: integrin β3 (protein, UniProt O54890 26-787)
chain: ESNICTTRGVNSCQQCLAVSPVCAWCSDETLSQGSPRCNLKENLLKDNCAPESIEFPVSEAQILEARPLSSKGSGSSAQITQVSPQRIALRLRPDDSKIFSLQVRQVEDYPVDIYYLMDLSFSMKDDLSSIQTLGTKLASQMRKLTSNLRIGFGAFVDKPVSPYMYISPPQAIKNPCYNMKNACLPMFGYKHVLTLTDQVSRFNEEVKKQSVSRNRDAPEGGFDAIMQATVCDEKIGWRNDASHLLVFTTDAKTHIALDGRLAGIVLPNDGHCHIGTDNHYSASTTMDYPSLGLMTEKLSQKNINLIFAVTENVVSLYQNYSELIPGTTVGVLSDDSSNVLQLIVDAYGKIRSKVELEVRDLPEELSLSFNATCLNNEVIPGLKSCVGLKIGDTVSFSIEAKVRGCPQEKEQSFTIKPVGFKDSLTVQVTFDCDCACQAFAQPSSPRCNNGNGTFECGVCRCDQGWLGSMCECSEEDYRPSQQEECSPKEGQPICSQRGECLCGQCVCHSSDFGKITGKYCECDDFSCVRYKGEMCSGHGQCNCGDCVCDSDWTGYYCNCTTRTDTCMSTNGLLCSGRGNCECGSCVCVQPGSYGDTCEKCPTCPDACSFKKECVECKKFNRGTLHEENTCSRYCRDDIEQVKELTDTGKNAVNCTYKNEDDCVVRFQYYEDTSGRAVLYVVEEPECPKGPDILVVLLSVMGAILLIGLATLLIWKLLITIHDRKEFAKFEEERARAKWDTANNPLYKEATSTFTNITYRGT
  binding: binds

These are yes or no findings as the source states them, for the method shown. In cells and extracts the contact can be indirect. Binding calls can cover weak binding; strength is not graded here.
